Some of these results come from one statement about several compounds together.
Key:
[1] = system: WT Geobacillus T1; test: Antibacterial activity against WT Geobacillus T1; assay type: cell-based; conditions: WT Geobacillus T1, also at 60° C.
[2] = system: Gram-positive pathogenic MRSA strains; test: Antibacterial activity (MIC, double-microdilution) against MRSA strains; assay type: cell-based
Protocol: Comparative antibacterial activities were determined by measuring the MIC values by using the double-microdilution method according to the National Committee for Clinical Laboratory Standards (NCCLS).
All the experiments were performed in triplicate, and analogous results were obtained in three different experiments.
The resistant strains included MRSA, a Gram-positive bacterium, the treatment of which represents a great challenge in the clinic; MRSA 252, which is known for its high resistance to aminoglycosides [M. T. G. Holden, E. J. Feil, J. A. Lindsay, S. J. Peacock, N. P. J. Day, M. C. Enright, T. J. Foster, C. E. Moore, L. Hurst, R. Atkin, et al., Proc. Natl. Acad. Sci. USA 2004, 101, 9786-9791]; and MRSA CI 15877, which is resistant to natural aminoglycosides [G. Kaneti, H. Sarig, I. Marjieh, Z. Fadia, A. Mor, FASEB J. 2013, 27, 4834-4843].

| Substance | antibacterial activity [1] | antibacterial performance versus that of NeoB [2] |
| --- | --- | --- |
| 4-O-(2-(pyrrolidin-1-yl)ethylamino)ethyl-neomycin [Compound 4] | showed antibacterial activity | improvement in antibacterial performance |
| 4′-O-(2-aminoethylamino)ethyl-neomycin [Compound 2] | showed antibacterial activity | improvement in antibacterial performance |

From patent US12364706B2, “Modified aminoglycoside compounds and uses thereof in disabling bacterial ribosome” (Technion Research & Development Foundation Limited, priority 2018, dated 2025)
